Assay results published in doi:10.1101/2023.09.17.558147.
Results are given in words; binding and its absence hold for the method and conditions named. In cells and extracts the contact can be indirect. These calls come from enrichment with a bait or labelling near it, and not all partners need be listed. For some assays here: No binding means not detected with the bait. One block for each binder: values may come before it.

How the values were obtained:
Experiment in all cases: proximity labelling
[1] = target: T1, Msh5-TurboID (S. cerevisiae) (UniProt Q12175)
T1 sequence: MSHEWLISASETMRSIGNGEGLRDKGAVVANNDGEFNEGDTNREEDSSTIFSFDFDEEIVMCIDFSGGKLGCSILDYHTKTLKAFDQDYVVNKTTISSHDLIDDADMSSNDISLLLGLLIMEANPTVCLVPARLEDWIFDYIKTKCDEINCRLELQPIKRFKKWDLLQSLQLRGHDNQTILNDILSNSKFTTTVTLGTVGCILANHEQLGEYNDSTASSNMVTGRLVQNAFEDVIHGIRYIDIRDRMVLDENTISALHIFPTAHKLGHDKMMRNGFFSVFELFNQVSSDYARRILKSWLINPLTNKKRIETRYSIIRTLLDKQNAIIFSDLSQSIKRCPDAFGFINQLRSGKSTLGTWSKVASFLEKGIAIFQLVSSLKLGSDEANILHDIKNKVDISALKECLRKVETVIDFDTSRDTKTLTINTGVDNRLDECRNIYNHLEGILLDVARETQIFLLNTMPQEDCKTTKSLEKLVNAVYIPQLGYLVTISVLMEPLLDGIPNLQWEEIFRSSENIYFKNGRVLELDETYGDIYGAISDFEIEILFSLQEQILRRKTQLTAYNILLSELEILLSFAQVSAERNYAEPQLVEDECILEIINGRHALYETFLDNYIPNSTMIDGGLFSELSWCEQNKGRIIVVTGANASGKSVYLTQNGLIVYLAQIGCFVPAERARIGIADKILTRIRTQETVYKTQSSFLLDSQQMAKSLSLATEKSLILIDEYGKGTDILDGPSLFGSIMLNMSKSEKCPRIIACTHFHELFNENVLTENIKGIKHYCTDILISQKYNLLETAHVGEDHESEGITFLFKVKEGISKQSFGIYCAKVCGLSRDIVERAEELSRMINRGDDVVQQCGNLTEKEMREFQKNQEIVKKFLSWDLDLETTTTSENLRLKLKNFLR

[2] = target: T2, Msh4-TurboID (S. cerevisiae) (UniProt P40965)
T2 sequence: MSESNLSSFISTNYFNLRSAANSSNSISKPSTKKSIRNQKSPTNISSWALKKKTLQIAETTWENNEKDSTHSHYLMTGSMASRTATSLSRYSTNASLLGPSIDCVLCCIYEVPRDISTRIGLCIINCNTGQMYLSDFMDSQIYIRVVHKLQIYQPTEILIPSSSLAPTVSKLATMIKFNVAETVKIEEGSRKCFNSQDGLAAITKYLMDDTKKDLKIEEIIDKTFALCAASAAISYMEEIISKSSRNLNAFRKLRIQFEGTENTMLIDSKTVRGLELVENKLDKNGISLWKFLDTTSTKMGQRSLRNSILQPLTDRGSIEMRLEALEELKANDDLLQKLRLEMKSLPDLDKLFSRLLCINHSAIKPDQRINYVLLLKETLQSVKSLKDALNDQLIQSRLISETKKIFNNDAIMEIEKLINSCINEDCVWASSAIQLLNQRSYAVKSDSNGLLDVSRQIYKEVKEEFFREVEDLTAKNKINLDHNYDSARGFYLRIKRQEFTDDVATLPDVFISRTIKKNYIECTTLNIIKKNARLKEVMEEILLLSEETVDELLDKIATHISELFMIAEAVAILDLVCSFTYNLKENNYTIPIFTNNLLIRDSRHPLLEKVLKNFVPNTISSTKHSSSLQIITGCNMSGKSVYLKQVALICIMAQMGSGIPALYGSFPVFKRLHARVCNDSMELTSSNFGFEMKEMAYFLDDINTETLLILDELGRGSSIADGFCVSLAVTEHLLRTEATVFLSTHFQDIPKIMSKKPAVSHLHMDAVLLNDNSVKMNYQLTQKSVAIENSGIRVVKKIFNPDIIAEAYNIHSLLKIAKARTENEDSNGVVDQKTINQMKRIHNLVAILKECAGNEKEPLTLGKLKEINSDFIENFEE

[3] = target: T3, Zip2-TurboID (S. cerevisiae) (UniProt P53061)
T3 sequence: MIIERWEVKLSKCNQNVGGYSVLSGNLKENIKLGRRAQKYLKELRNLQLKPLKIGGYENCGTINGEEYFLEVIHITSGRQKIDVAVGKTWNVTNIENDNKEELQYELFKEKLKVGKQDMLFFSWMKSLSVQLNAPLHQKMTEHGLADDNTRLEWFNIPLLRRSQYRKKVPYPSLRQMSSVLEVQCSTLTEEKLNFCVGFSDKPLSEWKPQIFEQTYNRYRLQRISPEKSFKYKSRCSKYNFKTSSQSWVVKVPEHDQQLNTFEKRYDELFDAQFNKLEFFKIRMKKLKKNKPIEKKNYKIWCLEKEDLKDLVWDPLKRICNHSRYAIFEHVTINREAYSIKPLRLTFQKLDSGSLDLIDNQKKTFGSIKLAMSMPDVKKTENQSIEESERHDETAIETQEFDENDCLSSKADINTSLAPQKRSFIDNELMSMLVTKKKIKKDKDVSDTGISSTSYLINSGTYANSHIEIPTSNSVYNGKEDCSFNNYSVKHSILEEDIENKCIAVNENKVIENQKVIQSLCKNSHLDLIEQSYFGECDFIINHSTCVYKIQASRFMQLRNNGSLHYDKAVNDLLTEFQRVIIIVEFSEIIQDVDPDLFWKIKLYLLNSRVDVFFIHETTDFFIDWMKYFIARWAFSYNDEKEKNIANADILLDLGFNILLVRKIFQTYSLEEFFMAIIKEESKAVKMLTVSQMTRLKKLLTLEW

binding [1]: binds
binding [2]: binds
B1: Zip2 (protein, UniProt P53061 1-704)
chain: T3 sequence

binding [2]: no binding
B2: Zip3[Δ107-121] (protein, UniProt Q06032)
chain: MGGYLAIVFIPQTNTKSMREKKQKCLKQVRRLSLISPKKYIMPDSIFEQPFVYCGVCHRRTSHGDPLRLTSCAHILCSQHSPLTSKVCPICRSSDISIINLVESKQLESLYNVSQFQLNGLSKQCQYYQNHCLKLREKCARQQQLLYQAKIELDSMAILKKRIQELESVLNHNNVSSMSVGVLPTRNSHQNHYQPPPTVDLTVDDNSLEEFEAKSFIKKLKKNSSLRNSSKNNNGTVTPSTSGRVNKNQPLFMETLNNPNRNSIPPPGMNPNANSNLPNISTIAESTNLNRFSFSPVRVAKGFDGKLPNLDILTNNGSVSSKNISRLSSASLQPSSPLSSSSNRLILPNSNLKELHHSNTPLTSTSTQFPSALEKLKITRKRNNTISGSNRITHNLSSHVRSSGLAFSSSSNSLQQSKLPKSNILKRSNSTQQLTNTHLKSDNHLPPRSSNTVLGSSKKNNKFRRIR

binding [2]: no binding
B3: Zip3[Δ137-150] (protein, UniProt Q06032)
chain: MGGYLAIVFIPQTNTKSMREKKQKCLKQVRRLSLISPKKYIMPDSIFEQPFVYCGVCHRRTSHGDPLRLTSCAHILCSQHSPLTSKVCPICRSSDISIINLVESKQLPTDIRIFFEPLPPLLESLYNVSQFQLNGLREKCARQQQLLYQAKIELDSMAILKKRIQELESVLNHNNVSSMSVGVLPTRNSHQNHYQPPPTVDLTVDDNSLEEFEAKSFIKKLKKNSSLRNSSKNNNGTVTPSTSGRVNKNQPLFMETLNNPNRNSIPPPGMNPNANSNLPNISTIAESTNLNRFSFSPVRVAKGFDGKLPNLDILTNNGSVSSKNISRLSSASLQPSSPLSSSSNRLILPNSNLKELHHSNTPLTSTSTQFPSALEKLKITRKRNNTISGSNRITHNLSSHVRSSGLAFSSSSNSLQQSKLPKSNILKRSNSTQQLTNTHLKSDNHLPPRSSNTVLGSSKKNNKFRRIR

binding [2]: no binding
B4: Zip3[L150E, L160E, L168E, L181E] (protein, UniProt Q06032 1-482)
chain: MGGYLAIVFIPQTNTKSMREKKQKCLKQVRRLSLISPKKYIMPDSIFEQPFVYCGVCHRRTSHGDPLRLTSCAHILCSQHSPLTSKVCPICRSSDISIINLVESKQLPTDIRIFFEPLPPLLESLYNVSQFQLNGLSKQCQYYQNHCLKEREKCARQQQELYQAKIEEDSMAILKKRIQEEESVLNHNNVSSMSVGVLPTRNSHQNHYQPPPTVDLTVDDNSLEEFEAKSFIKKLKKNSSLRNSSKNNNGTVTPSTSGRVNKNQPLFMETLNNPNRNSIPPPGMNPNANSNLPNISTIAESTNLNRFSFSPVRVAKGFDGKLPNLDILTNNGSVSSKNISRLSSASLQPSSPLSSSSNRLILPNSNLKELHHSNTPLTSTSTQFPSALEKLKITRKRNNTISGSNRITHNLSSHVRSSGLAFSSSSNSLQQSKLPKSNILKRSNSTQQLTNTHLKSDNHLPPRSSNTVLGSSKKNNKFRRIR

binding [2]: no binding
B5: Zip3[Δ388-400] (protein, UniProt Q06032)
chain: MGGYLAIVFIPQTNTKSMREKKQKCLKQVRRLSLISPKKYIMPDSIFEQPFVYCGVCHRRTSHGDPLRLTSCAHILCSQHSPLTSKVCPICRSSDISIINLVESKQLPTDIRIFFEPLPPLLESLYNVSQFQLNGLSKQCQYYQNHCLKLREKCARQQQLLYQAKIELDSMAILKKRIQELESVLNHNNVSSMSVGVLPTRNSHQNHYQPPPTVDLTVDDNSLEEFEAKSFIKKLKKNSSLRNSSKNNNGTVTPSTSGRVNKNQPLFMETLNNPNRNSIPPPGMNPNANSNLPNISTIAESTNLNRFSFSPVRVAKGFDGKLPNLDILTNNGSVSSKNISRLSSASLQPSSPLSSSSNRLILPNSNLKELHHSNTPLTSTSTQFPSAISGSNRITHNLSSHVRSSGLAFSSSSNSLQQSKLPKSNILKRSNSTQQLTNTHLKSDNHLPPRSSNTVLGSSKKNNKFRRIR

binding [2]: no binding
binding [3]: no binding
B6: Zip3[Δ203-482] (protein, UniProt Q06032)
chain: MGGYLAIVFIPQTNTKSMREKKQKCLKQVRRLSLISPKKYIMPDSIFEQPFVYCGVCHRRTSHGDPLRLTSCAHILCSQHSPLTSKVCPICRSSDISIINLVESKQLPTDIRIFFEPLPPLLESLYNVSQFQLNGLSKQCQYYQNHCLKLREKCARQQQLLYQAKIELDSMAILKKRIQELESVLNHNNVSSMSVGVLPTRN
